Assay results published in PMC12679539, “Synthesis and evaluation of nitroheterocyclic aromatic adamantane amides with trypanocidal activity. Part II” (RSC Medicinal Chemistry, 2025).
Where two headings read alike, the source gives them in different places.

Tests used:
[1] = test system: T. cruzi epimastigotes; experiment: Activity against Trypanosoma cruzi epimastigotes (Alamar Blue growth inhibition); format: cell-based, Trypanosoma cruzi (strain CL Brener); conditions: ratio of IC50 values obtained with L6 cells and T. cruzi epimastigotes
Description: Trypanocidal activity was assessed by growing parasites in microtiter plates in the presence of various drug concentrations. […] The plates were incubated for 4 days at 28 °C and 20 μL Alamar Blue (Biosource UK Ltd) was then added to each well. After an additional 3 days incubation, the fluorescence was determined using a Gemini fluorescent plate reader (Molecular Devices). Inhibition of growth was calculated by comparison with control values and IC50 and IC90 values were determined in triplicate using linear regression analysis.

[2] = test system: T. cruzi intracellular amastigotes; format: cell-based, Trypanosoma cruzi CL Brener PpyRE9h:mScarlet
Description: Assays were performed in 96-well black (clear bottom) microtitre plates (Corning Inc.). HeLa ^† cells were seeded at 10^4 per well, incubated for 3 days, and then infected with T. cruzi CL Brener PpyRE9h : mScarlet[25] culture form trypomastigotes (1 : 1 multiplicity of infection). After 16 hours, extracellular parasites were removed by washing in growth medium (×3), test compounds were added, and the plates incubated for 5 days. Fluorescence intensities were then determined using a BMG FLUOstar Omega plate reader (ex 545 nm, em 590 nm), and the data analysed using GraphPad Prism 9.0 software. The values were expressed as IC50/90 ± SD and are the mean of triplicate experiments.

O=C(NCCc1ccc(C2C3CC4CC(C3)CC2C4)cc1)c1ccc([N+](=O)[O-])o1 (stereo not shown) [2c, N-[4-(2-Adamantyl)phenethyl]-5-nitrofuran-2-carboxamide]
S.I. (epimastigotes) IC50/Tc IC50 [1]: 6

O=C(Cc1ccc(C23CC4CC(CC(C4)C2)C3)cc1)NCCCn1cnc([N+](=O)[O-])n1 [6e, 2-[4-(1-Adamantyl)phenyl]-N-[3-(3-nitro-1H-1,2,4-triazol-1-yl)propyl]acetamide]
S.I. (epimastigotes) IC50/Tc IC50 [1]: 168
S.I. (intracellular) IC50/Tc IC50 [2]: 9

O=C(NCc1ccc(C2C3CC4CC(C3)CC2C4)cc1)c1ccc([N+](=O)[O-])o1 (stereo not shown) [2b, N-[4-(2-Adamantyl)benzyl]-5-nitrofuran-2-carboxamide]
S.I. (epimastigotes) IC50/Tc IC50 [1]: 3

O=C(CCc1ccc(C23CC4CC(CC(C4)C2)C3)cc1)NCCn1cnc([N+](=O)[O-])n1 [6c, 3-[4-(1-Adamantyl)phenyl]-N-[2-(3-nitro-1H-1,2,4-triazol-1-yl)ethyl]propanamide]
S.I. (epimastigotes) IC50/Tc IC50 [1]: 50
S.I. (intracellular) IC50/Tc IC50 [2]: 15

O=C(NCCn1cnc([N+](=O)[O-])n1)c1ccc(C23CC4CC(CC(C4)C2)C3)cc1 [6a, 4-(1-Adamantyl)-N-[2-(3-nitro-1H-1,2,4-triazol-1-yl)ethyl] benzamide]
S.I. (epimastigotes) IC50/Tc IC50 [1]: 51
S.I. (intracellular) IC50/Tc IC50 [2]: 6

O=C(Cc1ccc(C23CC4CC(CC(C4)C2)C3)cc1)NCCn1cnc([N+](=O)[O-])n1 [6b, 2-[4-(1-Adamantyl)phenyl]-N-[2-(3-nitro-1H-1,2,4-triazol-1-yl)ethyl]acetamide]
S.I. (epimastigotes) IC50/Tc IC50 [1]: 154
S.I. (intracellular) IC50/Tc IC50 [2]: 16

O=C(CCc1ccc(C23CC4CC(CC(C4)C2)C3)cc1)NCCCn1cnc([N+](=O)[O-])n1 [6f, 3-[4-(1-Adamantyl)phenyl]-N-[3-(3-nitro-1H-1,2,4-triazol-1-yl)propyl]propanamide]
S.I. (epimastigotes) IC50/Tc IC50 [1]: 43
S.I. (intracellular) IC50/Tc IC50 [2]: 8

O=C(Cn1ccnc1[N+](=O)[O-])NCc1ccccc1 [Bzn, benznidazole, reference compound]
S.I. (epimastigotes) IC50/Tc IC50 [1]: 95
S.I. (intracellular) IC50/Tc IC50 ([2]; ratio of IC50 values obtained with L6 cells and T. cruzi intracellular amastigotes): 490

O=C(NCCCn1cnc([N+](=O)[O-])n1)c1ccc(C23CC4CC(CC(C4)C2)C3)cc1 [6d, 4-(1-Adamantyl)-N-[3-(3-nitro-1H-1,2,4-triazol-1-yl)propyl] benzamide]
S.I. (epimastigotes) IC50/Tc IC50 [1]: 49
S.I. (intracellular) IC50/Tc IC50 [2]: 6
